Among the data in US20050287648A1 (UNIVERSITY OF ROCHESTER, published 2005) are binding values, retold here.

By UniProt entry, the sequences of proteins in these tests, tags left out. Where a name states a change or a piece, a line headed by the entry shows the natural chain unless it says otherwise.
UniProt P41238: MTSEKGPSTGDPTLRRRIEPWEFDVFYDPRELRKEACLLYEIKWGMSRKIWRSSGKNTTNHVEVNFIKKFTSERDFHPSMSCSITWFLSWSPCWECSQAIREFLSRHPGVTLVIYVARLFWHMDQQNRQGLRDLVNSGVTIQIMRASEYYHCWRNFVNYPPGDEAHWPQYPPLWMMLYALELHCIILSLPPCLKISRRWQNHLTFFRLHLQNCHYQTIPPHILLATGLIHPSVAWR

Assay [1] deals with APOBEC-1 (apolipoprotein B mRNA editing catalytic subunit 1) (Homo sapiens (Human)) (UniProt P41238). Briefly: yeast two-hybrid (MatchMaker; his- selection and lacZ filter lift).
For assay [2] the target is unchanged. Briefly: yeast two-hybrid (MatchMaker; his- selection and lacZ filter lift), figure legend.

No constants are given. Whether binding was seen depends on the method and setting. Some binding calls cover weakened binding; strength is not graded here.

As to “APOBEC-1 (apolipoprotein B mRNA editing catalytic subunit 1) (from UniProt P41238 1-236) (enzyme)”, the binding result in assay [1] and in assay [2] was “binds” in each case.
